Measured values: paper PMC4264851
These are yes or no findings as the source states them, for the method shown. In cells and extracts the contact can be indirect. These calls come from enrichment with a bait or labelling near it, and not all partners need be listed. For part of these data: Sequences can lack the tags named with a protein.

Experiments:
Utp6-HA (S. cerevisiae) [1] = molecular target: T1, Utp6-HA (S. cerevisiae) (UniProt Q02354); test: affinity purification with mass spectrometry; only Utp6-HA and Utp18 co-expressed in SF21 cells (bacmid K2139); one-step, bait Utp6-HA by HA affinity purification; SDS-PAGE and MS
T1 sequence: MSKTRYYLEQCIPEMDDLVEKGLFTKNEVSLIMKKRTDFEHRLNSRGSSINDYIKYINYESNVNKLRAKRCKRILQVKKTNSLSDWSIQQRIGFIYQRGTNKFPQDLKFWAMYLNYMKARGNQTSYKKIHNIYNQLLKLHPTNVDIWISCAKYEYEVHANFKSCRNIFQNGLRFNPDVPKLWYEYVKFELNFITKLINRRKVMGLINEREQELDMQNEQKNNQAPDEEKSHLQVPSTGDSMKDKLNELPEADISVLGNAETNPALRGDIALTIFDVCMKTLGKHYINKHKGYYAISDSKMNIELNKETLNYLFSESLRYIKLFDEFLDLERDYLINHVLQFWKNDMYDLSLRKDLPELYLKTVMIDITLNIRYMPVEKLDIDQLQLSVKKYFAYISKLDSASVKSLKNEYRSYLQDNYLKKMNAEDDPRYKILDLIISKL

Utp6-HA (S. cerevisiae) [2] = molecular target: T1, Utp6-HA (S. cerevisiae); test: affinity purification with mass spectrometry; bacmid K1992 (six UTP B proteins); two-step: anti-FLAG eluate (Utp12-FLAG) purified again on anti-HA affinity matrix with Utp6-HA as bait, HA peptide elution; SDS-PAGE, Coomassie, MS of bands
Utp6-HA (S. cerevisiae) [3] = molecular target: T1, Utp6-HA (S. cerevisiae); test: affinity purification with mass spectrometry; bacmid K1991 (six UTP B proteins); two-step: IgG Sepharose/TEV eluate (Pwp2-TAP) purified again on anti-HA affinity matrix with Utp6-HA as bait, HA peptide elution; SDS-PAGE, Coomassie, MS of bands
Utp6-HA (S. cerevisiae) [4] = molecular target: T1, Utp6-HA (S. cerevisiae); test: affinity purification with mass spectrometry; only Pwp2-TAP, Utp6-HA and Utp18 co-expressed in SF21 cells (bacmid K2134); one-step, bait Pwp2-TAP on IgG-coupled beads with TEV elution, or bait Utp6-HA by HA affinity purification; SDS-PAGE and MS
[5] = molecular target: T2, Utp21-TAP (S. cerevisiae) (UniProt Q06078); test: affinity purification with mass spectrometry; only Utp21-TAP, Utp6-HA and Utp18 co-expressed in SF21 cells (bacmid K2136); one-step, bait Utp21-TAP on IgG-coupled beads with TEV elution, or bait Utp6-HA by HA affinity purification; SDS-PAGE and MS
T2 sequence: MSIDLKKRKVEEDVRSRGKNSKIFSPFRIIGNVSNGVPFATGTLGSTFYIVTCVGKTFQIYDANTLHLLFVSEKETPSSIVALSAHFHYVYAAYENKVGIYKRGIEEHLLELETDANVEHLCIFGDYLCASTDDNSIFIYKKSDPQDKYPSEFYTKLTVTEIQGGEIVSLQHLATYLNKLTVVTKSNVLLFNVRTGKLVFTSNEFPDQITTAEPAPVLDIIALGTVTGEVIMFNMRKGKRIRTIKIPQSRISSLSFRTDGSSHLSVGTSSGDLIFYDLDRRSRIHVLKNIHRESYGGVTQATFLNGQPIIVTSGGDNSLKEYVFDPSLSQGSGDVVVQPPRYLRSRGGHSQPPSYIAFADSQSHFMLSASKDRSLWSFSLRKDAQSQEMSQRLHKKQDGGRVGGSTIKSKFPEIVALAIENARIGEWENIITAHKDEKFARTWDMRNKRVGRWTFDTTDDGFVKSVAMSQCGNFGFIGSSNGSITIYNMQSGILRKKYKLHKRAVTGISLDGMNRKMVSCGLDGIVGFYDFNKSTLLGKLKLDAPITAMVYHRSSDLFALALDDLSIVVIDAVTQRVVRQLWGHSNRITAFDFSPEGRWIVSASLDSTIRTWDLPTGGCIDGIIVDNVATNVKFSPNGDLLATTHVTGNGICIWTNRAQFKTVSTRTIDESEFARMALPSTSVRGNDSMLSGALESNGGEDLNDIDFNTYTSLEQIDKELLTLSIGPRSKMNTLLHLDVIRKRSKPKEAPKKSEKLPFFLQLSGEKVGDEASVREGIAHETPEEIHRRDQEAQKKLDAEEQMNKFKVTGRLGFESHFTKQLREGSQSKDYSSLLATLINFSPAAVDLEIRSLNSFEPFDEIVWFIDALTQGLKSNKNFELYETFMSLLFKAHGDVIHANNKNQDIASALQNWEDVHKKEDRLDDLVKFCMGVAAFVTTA

Utp6-HA (S. cerevisiae) [6] = molecular target: T1, Utp6-HA (S. cerevisiae); test: as above
[7] = molecular target: T3, Utp12-FLAG (S. cerevisiae) (UniProt Q12220); test: affinity purification with mass spectrometry; Pwp2, Utp6-HA, Utp12-FLAG, Utp13, Utp18 and Utp21 co-expressed in SF21 cells (bacmid K1992); one-step, bait Utp12-FLAG on anti-FLAG affinity matrix, FLAG peptide elution; SDS-PAGE, Coomassie, MS of bands
T3 sequence: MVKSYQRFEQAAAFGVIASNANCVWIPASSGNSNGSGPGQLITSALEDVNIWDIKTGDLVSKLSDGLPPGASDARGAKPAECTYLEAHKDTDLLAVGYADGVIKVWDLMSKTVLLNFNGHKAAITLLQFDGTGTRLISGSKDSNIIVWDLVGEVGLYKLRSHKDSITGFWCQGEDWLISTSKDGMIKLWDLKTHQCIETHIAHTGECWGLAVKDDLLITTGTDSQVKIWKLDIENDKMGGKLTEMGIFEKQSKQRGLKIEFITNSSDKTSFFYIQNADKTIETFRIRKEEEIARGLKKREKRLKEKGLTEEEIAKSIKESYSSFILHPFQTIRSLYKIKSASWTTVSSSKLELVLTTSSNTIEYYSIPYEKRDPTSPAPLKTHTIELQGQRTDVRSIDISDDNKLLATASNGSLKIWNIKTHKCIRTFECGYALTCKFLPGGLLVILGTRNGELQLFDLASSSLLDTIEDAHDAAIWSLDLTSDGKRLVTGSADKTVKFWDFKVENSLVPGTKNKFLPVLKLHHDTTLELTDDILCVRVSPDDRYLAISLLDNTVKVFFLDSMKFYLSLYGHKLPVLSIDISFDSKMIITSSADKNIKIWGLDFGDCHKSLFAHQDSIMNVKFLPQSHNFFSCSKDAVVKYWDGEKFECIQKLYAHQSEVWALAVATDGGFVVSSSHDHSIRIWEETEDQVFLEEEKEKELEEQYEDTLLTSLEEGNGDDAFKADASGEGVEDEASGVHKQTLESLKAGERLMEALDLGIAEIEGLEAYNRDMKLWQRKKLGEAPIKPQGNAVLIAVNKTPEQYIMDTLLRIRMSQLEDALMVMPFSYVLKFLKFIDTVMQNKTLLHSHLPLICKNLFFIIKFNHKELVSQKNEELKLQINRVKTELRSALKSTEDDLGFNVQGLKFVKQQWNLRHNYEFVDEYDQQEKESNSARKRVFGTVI

[8] = molecular target: T2, Utp21-TAP (S. cerevisiae); test: affinity purification with mass spectrometry; only Utp21-TAP, Utp6-HA, Utp18 and Pwp2 co-expressed in SF21 cells (bacmid K2137); one-step, bait Utp21-TAP on IgG-coupled beads with TEV elution, or bait Utp6-HA by anti-HA affinity purification; SDS-PAGE and MS
Utp6-HA (S. cerevisiae) [9] = molecular target: T1, Utp6-HA (S. cerevisiae); test: as above

Measured: binding

B1: Utp18 (protein, UniProt P40362 1-594)
chain: MTMATTAMNVSVPPPDEEEQLLAKFVFGDTTDLQENLAKFNADFIFNEQEMDVEDQEDEGSESDNSEEDEAQNGELDHVNNDQLFFVDDGGNEDSQDKNEDTMDVDDEDDSSSDDYSEDSEEAAWIDSDDEKIKVPILVTNKTKKLRTSYNESKINGVHYINRLRSQFEKIYPRPKWVDDESDSELDDEEDDEEEGSNNVINGDINALTKILSTTYNYKDTLSNSKLLPPKKLDIVRLKDANASHPSHSAIQSLSFHPSKPLLLTGGYDKTLRIYHIDGKTNHLVTSLHLVGSPIQTCTFYTSLSNQNQQNIFTAGRRRYMHSWDLSLENLTHSQTAKIEKFSRLYGHESTQRSFENFKVAHLQNSQTNSVHGIVLLQGNNGWINILHSTSGLWLMGCKIEGVITDFCIDYQPISRGKFRTILIAVNAYGEVWEFDLNKNGHVIRRWKDQGGVGITKIQVGGGTTTTCPALQISKIKQNRWLAVGSESGFVNLYDRNNAMTSSTPTPVAALDQLTTTISNLQFSPDGQILCMASRAVKDALRLVHLPSCSVFSNWPTSGTPLGKVTSVAFSPSGGLLAVGNEQGKVRLWKLNHY
binds: Utp6-HA (S. cerevisiae) [1] | Utp6-HA (S. cerevisiae) [2] | Utp6-HA (S. cerevisiae) [3] | Utp6-HA (S. cerevisiae) [4] | [5] | Utp6-HA (S. cerevisiae) [6] | [7] | [8] | Utp6-HA (S. cerevisiae) [9]
